According to patent publication US8030453B2, “Methods of making an antibody that binds a chemerin polypeptide” (Euroscreen S.A., priority 2001, dated 2011):

Target: T1, ChemerinR (Homo sapiens, UniProt Q99788)
T1 construct: This fragment was subcloned into the pcDNA3 (Invitrogen) vector; expressed in transfected cells; CHO-K1 elsewhere)
T1 sequence (Q99788 3-373): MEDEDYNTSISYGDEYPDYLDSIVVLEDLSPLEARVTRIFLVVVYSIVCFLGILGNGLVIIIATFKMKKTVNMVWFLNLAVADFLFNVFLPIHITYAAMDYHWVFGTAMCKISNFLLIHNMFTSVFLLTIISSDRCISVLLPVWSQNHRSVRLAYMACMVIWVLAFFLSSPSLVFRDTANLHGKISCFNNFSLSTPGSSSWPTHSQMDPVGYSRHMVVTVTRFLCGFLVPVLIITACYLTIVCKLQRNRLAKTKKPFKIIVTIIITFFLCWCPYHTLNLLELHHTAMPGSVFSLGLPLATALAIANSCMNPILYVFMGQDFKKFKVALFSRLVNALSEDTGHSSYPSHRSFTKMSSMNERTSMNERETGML
Assay: Calcium flux - Aequoscreen assay
Format: cell-based
Procedure: ChemerinR expressing clones were transfected to coexpress mithochondrial apoaequorin and Gα16. Cells in mid-log phase, grown in media without antibiotics 18 hours prior to the test, were detached by gentle flushing with PBS-EDTA (5 mM EDTA), recovered by centrifugation and resuspended in “BSA medium” (DMEM/HAM's F12 with HEPES, without phenol red+0.1% BSA). Cells were then counted, centrifuged and resuspended in a 15 ml Falcon tube at a concentration of 1×10^6 cells/ml.
The Falcon tube, wrapped in aluminium foil, was then placed on a vertical rotating wheel and incubated at room temperature (temperature should be maintained below 22° C.) overnight in order to reconstitute active aequorin.
Cells were then diluted 1/10 in “BSA-medium” and incubated as described above for 60 min. Reference ligands were diluted in “BSA-medium” and distributed in a 96-well plate (50 μl/well). For each measurement, 50 μl of cells (i.e. 5 000 cells) were injected into each well of the plate containing the ligands, and the emitted light is recorded (FDSS, Hamamatsu) during 20 seconds following cells injection. Results were expressed as Relative Light Units (RLU).
The intensity of the emitted light was integrated, yielding for each well one value representative of the emitted light.

With `CC(C)C[C@H](NC(=O)[C@@H](N)Cc1ccc(O)cc1)C(=O)N1CCC[C@H]1C(=O)NCC(=O)N[C@@H](CCC(N)=O)C(=O)N[C@@H](Cc1ccccc1)C(=O)N[C@@H](C)C(=O)N[C@@H](Cc1ccccc1)C(=O)N[C@@H](CO)C(=O)O` the EC50 was 3.23 nM.
